This is an account of results in PubChem BioAssay AID1347426 (Functional Genomics Laboratory (NCATS/FGL), 2020).

Out of some 31,000 sequences screened, about 1,400 (4.5%) were called active.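 How the source made its calls: active means median seed-adjusted z-score above 1 or below -1; inactive means the rest.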 Some of the results follow.

The nature of this experiment: Novel Modifiers of Survival Motor Neuron (SMN) Protein: Gene Identification via Genome-wide siRNA Screen.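 Further: luminescence tracks full-length SMN protein made from the SMN2 reporter.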 To be noted: HEK293T SMN2-luciferase reporter, siRNA knockdown, 72 h; actives lie on both sides. The procedure, abridged: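 Luciferase signal, proportional to full-length SMN made from an SMN2 cDNA reporter in stable HEK293T cells, was read 72 h after siRNA reverse transfection. Values were expressed as MAD scores after non-targeting-control normalization and log10 conversion; seed analysis flagged off-targets.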
For AGUACGAUCUUGACUUCAATT against ENO3, the median seed-adjusted z-score was inactive: -0.142.

Take GCAUCAAAGCCUUAGACCATT against KLK2: the median seed-adjusted z-score was inactive: 0.0716.

Regarding GUUAGGUAGUAGAAACAAATT against TCFL5, the median seed-adjusted z-score is active: 1.52.

As for GAAUGGUCUUUGCAUCUGATT against ZNF589, the median seed-adjusted z-score is inactive: -0.0897.

As for GCUGAGUCCUGAUAACCAATT against IFIT3, the median seed-adjusted z-score was inactive: -0.437.

On to GGACUUGACCUAAAGGGUUTT against RFX5, for which the median seed-adjusted z-score is inactive: 0.432.

GGAUAUGAUGGAGCAAAAATT against PRKCI: the median seed-adjusted z-score was inactive: 0.386.

In the case of GAGUUGGGAUGGUUGCAUATT against TUBGCP3, the median seed-adjusted z-score was inactive: -0.685.

CAGUUACUCUGGGAGUAUATT against PRPF3: the median seed-adjusted z-score is inactive: -0.289.

For the sequence AGAUCCCACAGACCAAUGUTT against ACP5, the median seed-adjusted z-score is inactive: 0.353.

Consider GCAGAACUGCUGCUACAGATT against ANKZF1, for which the median seed-adjusted z-score was inactive: 0.176.

Regarding GGUUAACAAUGAGGACUUATT against CACNA2D2, the median seed-adjusted z-score is inactive: -0.702.

Regarding GCGUGUCAAAACUAACGUATT against RALY, the median seed-adjusted z-score is inactive: 0.

For the sequence AAAUUCCCGUCAUUGAAAATT against SNRPA1, the median seed-adjusted z-score is active: -2.71.

For CCAUUGCUAUCACAUGUUUTT against COCH, the median seed-adjusted z-score was inactive: -0.524.

CAAUGACUGUAAUGGACGATT against RCHY1: the median seed-adjusted z-score was inactive: -0.157.

For GGCAAUCUCAGGAAAAAUATT against SRD5A3, the median seed-adjusted z-score was inactive: -0.165.

With GGCGGGAACUGACUGACUATT against FKSG30, the median seed-adjusted z-score was inactive: -0.292.

Take CCAACAUGACCUUCACCAATT against HOMER3: the median seed-adjusted z-score is inactive: 0.148.

As for CACUGUGGAUGGUAUGGGATT against SGCZ, the median seed-adjusted z-score is inactive: 0.0893.

Consider CAGCUUUACUACUCCCUUUTT against PHOSPHO1, for which the median seed-adjusted z-score is inactive: -0.296.

With AGAUUGCUCGGAUCUACAATT against UBE2D2, the median seed-adjusted z-score is inactive: 0.574.

With GUACGUCCAUUAUGGAGAATT against GPR82, the median seed-adjusted z-score is inactive: -0.83.

GAAUCGAUGUAAAAACCGUTT against PTPRO: the median seed-adjusted z-score is inactive: 0.387.

GGUCAACGAUGACAACCGATT against ITGB4: the median seed-adjusted z-score was inactive: -0.226.

Regarding UCUGAGAACUUGAGACCUATT against FOXE1, the median seed-adjusted z-score was inactive: -0.316.

With GCACAUUGGUUUUGGAAUUTT against MS4A12, the median seed-adjusted z-score is inactive: -0.881.

As to GCAUCGUAUCAGCAUCUAUTT against BRPF3, the median seed-adjusted z-score is inactive: -0.615.

For the sequence CCGUGAAACAUGACUCCAATT against SEMA6B, the median seed-adjusted z-score is inactive: 0.311.

As to CAGACUGAAGGGUUCCGAATT against MLH3, the median seed-adjusted z-score is inactive: 0.228.

GCAACUUUCCACUUUCGAATT against ZNF280B: the median seed-adjusted z-score was inactive: 0.113.

Take CCACCUACACUUUAGACAATT against ZNF197: the median seed-adjusted z-score was inactive: -0.219.

Turning to AGACCUGACUGUUAUCACATT against OPLAH, the median seed-adjusted z-score was inactive: -0.233.

On to AGUUCACUAAGUUAUGCAATT against GJB3, for which the median seed-adjusted z-score was inactive: -0.198.

In the case of AGACAGAGCAGAUCCGCAATT against PROKR1, the median seed-adjusted z-score was inactive: -0.507.

For the sequence GGACUUCAAGGCAUACGAATT against FOXA1, the median seed-adjusted z-score was inactive: 0.279.

In the case of CCGUGGAUGAGGUAUUCAATT against PLCL2, the median seed-adjusted z-score is inactive: 0.393.

GAAUCCGGAUCAUUCUAGATT against PIAS1: the median seed-adjusted z-score is inactive: -0.0367.

Consider GGCUCCAUCUGGUCAGAAUTT against FOXP4, for which the median seed-adjusted z-score is inactive: 0.588.

In the case of GCUAGAUUAUCGUCCAAAATT against FAS, the median seed-adjusted z-score was inactive: -0.377.

Regarding CUUCAACUGUCUACAAUUATT against ABP1, the median seed-adjusted z-score was inactive: -0.241.

Take CGAGACCGCUACAACCACATT against GPR4: the median seed-adjusted z-score was inactive: 0.563.

For the sequence GCUACUGUCUCAACGGAUATT against NPNT, the median seed-adjusted z-score is inactive: 0.164.

With CAACGACUACAGGUCUGUATT against ITGA11, the median seed-adjusted z-score is inactive: 0.496.

Turning to GGGCUCCAUUCAUUCAACATT against KLK15, the median seed-adjusted z-score was inactive: 0.

With GGAUAAUAGCAAAUAUCAUTT against FCRL3, the median seed-adjusted z-score is inactive: -0.642.

For the sequence GCUUGGAGCUCAACACCGUTT against ONECUT3, the median seed-adjusted z-score is inactive: -0.653.

Regarding GCAAUGUUAUCAUCACCCATT against DHX30, the median seed-adjusted z-score is inactive: 0.335.

AGUAUAAGCCUGCAGUUAATT against AKR1B1: the median seed-adjusted z-score was inactive: 0.0107.

For the sequence CCUGGAUCAUAUUCACAGATT against RAGE, the median seed-adjusted z-score is inactive: -0.154.

Take GGCAAAGGCAAAUUGAGGATT against HRH1: the median seed-adjusted z-score is inactive: 0.204.

On to CCACGGGAAAGAUCGUGUATT against SLC6A8, for which the median seed-adjusted z-score was inactive: -0.0673.

Take GCUCAACUCUUAUUAGUCATT against ZNF485: the median seed-adjusted z-score is inactive: 0.445.

With GCACCAUCUUCAGCGAAGATT against GSC2, the median seed-adjusted z-score is inactive: -0.0829.

Turning to GGCUAACAAUGGUACCGAUTT against CREB1, the median seed-adjusted z-score was inactive: 0.391.

For CAGGUUUACUGCUAAACCATT against KIF2A, the median seed-adjusted z-score is inactive: 0.289.

Regarding AGCUUCGUCUACAUCCUUATT against KCNK3, the median seed-adjusted z-score is inactive: 0.

Turning to GCUGCAACCUUGACUACUATT against RRM1, the median seed-adjusted z-score is active: -5.51.

As to GUAUCCACUUCAUCAUUAATT against GTF2IRD1, the median seed-adjusted z-score is inactive: -0.282.

For the sequence GGAAAAAUGAUUCAACCCATT against TRHR, the median seed-adjusted z-score is inactive: -0.873.

As to GGCAAAACCUGAUGAAUUATT against VAPA, the median seed-adjusted z-score was inactive: -0.623.

Turning to GCAGAAAUAUGACCAUGCATT against NMT1, the median seed-adjusted z-score is inactive: 0.18.

Consider GGACCAGACAACGAACUGATT against RNF135, for which the median seed-adjusted z-score was inactive: 0.581.

For the sequence CCACCUUUGUUGUCUGCAATT against TCEA2, the median seed-adjusted z-score was inactive: 0.552.

Turning to GUGCCUAAGUCUUUAGUUUTT against IFI35, the median seed-adjusted z-score is inactive: 0.105.

Turning to GAAGGACACUUAUAGGCUUTT against LSM1, the median seed-adjusted z-score is inactive: 0.

AGCCCGUCGUCUACUUCUGTT against MRGPRE: the median seed-adjusted z-score is inactive: -0.65.

For the sequence GCAACAUCUUUAAGCAGUUTT against ZNF195, the median seed-adjusted z-score is inactive: 0.0753.

Regarding GUCGAGCAAUAGGCAAUAATT against MAP3K7IP2, the median seed-adjusted z-score was inactive: 0.0195.
